{"source": "paper PMC4503256", "about": "(Biopharmaceutics & drug disposition, 2012)", "origin": "cited, not measured here", "details": "measured value; cited from earlier work"}
{"molecule": "CC(C)Cc1ccc(C(C)C(=O)O)cc1", "note": "(stereo not shown) [Ibuprofen]", "values": [{"measurement": "Intrinsic solubility at 37 °C", "value": "3.3 × 10^−4a M"}]}
